PubChem BioAssay AID1259260 – Sanger Institute – 2017

- Purpose: 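Kinases whose knock-down kills colorectal cancer cells or boosts drug effects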 (primary screen)
- Cell system: human NCI-H716 colorectal cancer cells
- Reagents: siRNA pool against human genes
- Treatment: anchor drugs BYL719 (alpelisib) 1 µM, cetuximab 5 µg/ml or trametinib 10 nM, each at a dose chosen to harm viability only mildly; DMSO vehicle for the knock-down-alone arm
- Measured: 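Replicate-averaged viability relative to a non-targeting pool, a robust z-score for knock-down alone, and a synergy score per anchor drug versus each agent alone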
- Scale: viability robust z-score, siRNA alone: higher = more surviving cells; below -3 called essential; viability vs control, no drug: higher = more surviving cells; synergy score with BYL719 and synergy score with cetuximab and synergy score with trametinib: higher = stronger synergy (synthetic lethality) with drug
- Call rule: 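a knock-down counts as essential if its no-drug robust z-score is lower than -3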
- Meaning of the calls: active = essential (knock-down alone lowers viability); inactive = no essential effect
Here is one part, drawn at random, of 794 deposited reagents. Over the whole deposit, 13 (1.6%) were called active. 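Calls reflect only knock-down without drug; synergy above 0.15 was grouped apart and does not change the call.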 No viability above 1 is reported: the scale is capped. The record does not give: the amount of reagent, the time to read-out.

Gene	viability robust z-score, siRNA alone	viability vs control, no drug (fraction of control)	synergy score with BYL719	synergy score with cetuximab	synergy score with trametinib	call
MAPKAPK3 (GeneID 7867)	-2.14	0.715	-0.122	-0.0394	0.127	inactive
CALM1 (GeneID 801)	0.0466	0.942	-0.212	-0.152	-0.0422	inactive
IP6K3 (GeneID 117283)	0.113	0.949	-0.144	-0.146	0.173	inactive
PAPSS2 (GeneID 9060)	0.602	1	-0.283	-0.1	-0.0246	inactive
EFNA5 (GeneID 1946)	-1.28	0.804	-0.0762	0.101	0.189	inactive
FOXP1 (GeneID 27086)	0.602	1	0.158	-0.075	0.332	inactive
SRPK1 (GeneID 6732)	-0.582	0.877	-0.098	0.0988	0.000971	inactive
SYNCRIP (GeneID 10492)	0.602	1	-0.0571	-0.1	0.421	inactive
FN3KRP (GeneID 79672)	-1.43	0.788	0.0239	-0.124	0.203	inactive
PGK1 (GeneID 5230)	0.602	1	0.0722	0.0518	0.059	inactive
TRPM7 (GeneID 54822)	0.602	1	-0.0321	-0.1	-0.102	inactive
PFKP (GeneID 5214)	-2.29	0.699	-0.16	-0.103	-0.164	inactive
CDKN2B (GeneID 1030)	-1.7	0.76	-0.131	-0.198	-0.0435	inactive
DSTYK (GeneID 25778)	0.602	1	-0.11	-0.1	-0.0544	inactive
MAK (GeneID 4117)	0.602	1	-0.276	-0.1	0.215	inactive
MAP3K2 (GeneID 10746)	0.602	1	-0.283	-0.1	0.064	inactive
CHEK2 (GeneID 11200)	0.602	1	-0.206	-0.1	0.0153	inactive
GUK1 (GeneID 2987)	-1.83	0.747	-0.0342	-0.0132	0.0627	inactive
CSNK1A1 (GeneID 1452)	-0.143	0.923	-0.261	-0.17	0.0626	inactive
SKAP1 (GeneID 8631)	0.602	1	-0.082	-0.1	-0.00538	inactive
ACO1 (GeneID 48)	-1.34	0.798	-0.0127	-0.0505	-0.001	inactive
HIPK3 (GeneID 10114)	-3.42	0.582	-0.237	-0.0762	-0.0319	active
NME6 (GeneID 10201)	-0.467	0.889	-0.363	-0.2	-0.162	inactive
NUAK2 (GeneID 81788)	0.602	1	0.0469	-0.0588	-0.091	inactive
DGKK (GeneID 139189)	0.602	1	-0.152	-0.0663	0.0843	inactive
SRGAP3 (GeneID 9901)	0.602	1	-0.239	-0.1	-0.0877	inactive
PI4K2B (GeneID 55300)	0.107	0.949	-0.107	-0.0272	0.0834	inactive
STK32A (GeneID 202374)	0.055	0.943	-0.119	0.107	0.0821	inactive
HASPIN (GeneID 83903)	0.285	0.967	-0.0912	-0.0119	0.152	inactive
PANK3 (GeneID 79646)	0.602	1	-0.0356	-0.0377	0.133	inactive
MAP4K5 (GeneID 11183)	0.602	1	-0.283	0.000113	0.0168	inactive
DAPK3 (GeneID 1613)	0.602	1	-0.149	-0.1	0.0765	inactive
TBK1 (GeneID 29110)	0.602	1	-0.283	0.0348	0.0136	inactive
PRKCH (GeneID 5583)	0.602	1	-0.0488	-0.1	-0.141	inactive
LATS1 (GeneID 9113)	-2.65	0.662	-0.16	0.00523	-0.0556	inactive
PRKAG3 (GeneID 53632)	-1.9	0.74	-0.139	0.00317	-0.113	inactive
GAK (GeneID 2580)	0.602	1	-0.0399	-0.1	0.294	inactive
TWF2 (GeneID 11344)	0.602	1	-0.283	-0.1	-0.0743	inactive
PAPSS1 (GeneID 9061)	0.602	1	-0.0574	-0.1	0.0326	inactive
DCK (GeneID 1633)	0.602	1	-0.195	-0.1	-0.0628	inactive
RET (GeneID 5979)	-1.64	0.767	-0.219	-0.205	-0.0644	inactive
IKBKB (GeneID 3551)	0.602	1	-0.1	-0.1	0.192	inactive
ACVR2A (GeneID 92)	0.602	1	-0.0965	-0.1	-0.117	inactive
PKM (GeneID 5315)	0.602	1	-0.037	-0.0102	0.0704	inactive
MAPK14 (GeneID 1432)	-0.744	0.86	-0.162	0.0308	0.0719	inactive
MUSK (GeneID 4593)	-1.66	0.764	-0.0958	-0.0317	0.0853	inactive
CDC42BPA (GeneID 8476)	0.602	1	-0.263	-0.1	0.093	inactive
ZC3H11A (GeneID 9877)	0.602	1	-0.0232	-0.1	0.152	inactive
KDR (GeneID 3791)	0.602	1	-0.0511	-0.1	0.0345	inactive
SMAD4 (GeneID 4089)	0.602	1	-0.0805	-0.1	-0.0158	inactive

Look-ups from the entries so far:
PAPSS1 (GeneID 9061), viability vs control, no drug (fraction of control) = 1
Under “synergy score with cetuximab”, MAP4K5 (GeneID 11183) reads 0.000113
Entry of TWF2 (GeneID 11344) under “synergy score with trametinib”: -0.0743
Entry of PAPSS2 (GeneID 9060) under “synergy score with trametinib”: -0.0246
